# Results deposited as PubChem BioAssay AID1053209 (Peter MacCallum Cancer Centre, 2014).
# Test: 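Follow-up of single siRNAs that strengthen doxorubicin killing in osteosarcoma cells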 (follow-up of hits)
# Cell system: mouse primary osteosarcoma cells
# Reagent: single siRNA against mouse genes, 25 nM (text also states 40 nM)
# Timing: about 120 h (48 h before drug, then 72 h with drug)
# Treatment: doxorubicin 100 nM (about IC30-40), added 48 h after transfection, for 72 h
# Read-out: 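Viability measured by ATP luminescence with and without doxorubicin, each replicate scaled to non-targeting siRNA NT1, averaged over two replicates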
# Scale: viability with doxorubicin, vs NT1: higher = more viable cells under doxorubicin; viability ratio, doxorubicin over no drug: higher = less sensitisation to doxorubicin; viability without drug, vs NT1: higher = more viable cells without drug
# Call rule: 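Counted as active (class LC dox) if viability falls to 0.7 of NT1 or below under doxorubicin but stays within 0.7 to 1.1 without drug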
# In all, the deposit lists about 1,580 reagents; shown is a part drawn at random. 207 of them (13%) were called active. 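Rows are single siRNAs; four siRNAs per gene were tested, a gene counting as confirmed only when at least two agree.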 A number with no mark means an inactive call. Reagents against one gene are numbered here.
target gene,reagent,combined effect class,"viability with doxorubicin, vs NT1","viability ratio, doxorubicin over no drug","viability without drug, vs NT1"
Rps27 (ribosomal protein S27),1,low viability only with doxorubicin; normal without drug (active),0.52,0.65,0.8
Rps27 (ribosomal protein S27),2,normal viability with and without drug,0.76,0.9,0.84
Rps27 (ribosomal protein S27),3,normal viability with and without drug,0.84,0.89,0.94
Rps27 (ribosomal protein S27),4,low viability only with doxorubicin; normal without drug (active),0.46,0.63,0.73
Fmc1 (formation of mitochondrial complex V assembly factor 1),1,normal viability with and without drug,0.99,1.02,0.97
Fmc1 (formation of mitochondrial complex V assembly factor 1),2,low viability with and without drug,0.2,0.59,0.34
Fmc1 (formation of mitochondrial complex V assembly factor 1),3,normal viability with and without drug,0.88,0.85,1.03
Fmc1 (formation of mitochondrial complex V assembly factor 1),4,normal viability with and without drug,1.07,1.03,1.04
Rhov (ras homolog family member V),1,normal viability with and without drug,1.08,1.1,0.98
Rhov (ras homolog family member V),2,normal viability with and without drug,1.01,0.99,1.02
Rhov (ras homolog family member V),3,normal viability with and without drug,1.06,1.04,1.02
Rhov (ras homolog family member V),4,normal viability with and without drug,1.04,0.97,1.07
Aqr (aquarius),1,low viability with and without drug,0.22,0.58,0.38
Aqr (aquarius),2,low viability with and without drug,0.18,0.39,0.46
Aqr (aquarius),3,low viability with and without drug,0.18,0.43,0.42
Aqr (aquarius),4,low viability with and without drug,0.21,0.49,0.43
Stap2 (signal transducing adaptor family member 2),1,high viability only with doxorubicin,1.12,1.12,1
Stap2 (signal transducing adaptor family member 2),2,normal viability with and without drug,0.98,1,0.98
Stap2 (signal transducing adaptor family member 2),3,normal viability with and without drug,0.98,0.98,1
Stap2 (signal transducing adaptor family member 2),4,low viability only with doxorubicin; normal without drug (active),0.46,0.52,0.88
Nup54 (nucleoporin 54),1,low viability with and without drug,0.7,1.06,0.66
Nup54 (nucleoporin 54),2,normal viability with and without drug,0.92,0.96,0.96
Nup54 (nucleoporin 54),3,low viability only with doxorubicin; normal without drug (active),0.46,0.61,0.76
Nup54 (nucleoporin 54),4,low viability with and without drug,0.58,1,0.58
Mpp4,1,normal viability with and without drug,0.94,0.92,1.02
Mpp4,2,low viability only with doxorubicin; normal without drug (active),0.67,0.78,0.86
Mpp4,3,normal viability with and without drug,1.07,1.04,1.03
Mpp4,4,normal viability with and without drug,1.08,1.05,1.03
Mrpl48 (mitochondrial ribosomal protein L48),1,normal viability with and without drug,1.09,1.3,0.84
Mrpl48 (mitochondrial ribosomal protein L48),2,low viability only with doxorubicin; normal without drug (active),0.68,0.74,0.92
Mrpl48 (mitochondrial ribosomal protein L48),3,normal viability with and without drug,0.9,0.92,0.98
Mrpl48 (mitochondrial ribosomal protein L48),4,high viability only with doxorubicin,1.1,1.06,1.04
Clptm1 (cleft lip and palate associated transmembrane protein 1),1,normal viability with and without drug,0.96,1.02,0.94
Clptm1 (cleft lip and palate associated transmembrane protein 1),2,normal viability with and without drug,0.79,0.82,0.96
Clptm1 (cleft lip and palate associated transmembrane protein 1),3,normal viability with and without drug,0.84,0.98,0.86
Clptm1 (cleft lip and palate associated transmembrane protein 1),4,normal viability with and without drug,1.03,1.05,0.98
Rps12 (ribosomal protein S12),1,low viability with and without drug,0.19,0.32,0.59
Rps12 (ribosomal protein S12),2,normal viability with and without drug,0.94,0.91,1.03
Rps12 (ribosomal protein S12),3,normal viability with and without drug,0.74,1,0.74
Rps12 (ribosomal protein S12),4,low viability with and without drug,0.3,0.73,0.41
